Measurements published in US20100004235A1, “Heterocyclic Substituted, Anellated Pyrazole Derivative and its uses” (BAYER HEALTHCARE AG, priority 2006, published 2010).

Tested on: rabbit aorta rings
Experiment: Vasorelaxant effect in vitro (rabbit aorta rings, phenylephrine-induced contraction)
Conditions: Oryctolagus cuniculus; concentration reducing the height of the phenylephrine-induced contraction of rabbit aorta rings by 50%; 0.1% DMSO
Procedure: Rabbits are stunned by a blow to the neck and exsanguinated. The aorta is removed, freed from adhering tissue and divided into rings of a width of 1.5 mm. The rings are placed individually under an initial tension in 5 ml organ baths with Krebs-Henseleit solution which is at 37° C., is gassed with carbogen and has the following composition (in each case mM): NaCl: 119; KCl: 4.8; CaCl2×2H2O: 1; MgSO4×7H2O: 1.4; KH2PO4: 1.2; NaHCO3: 25; glucose: 10. The force of contraction is detected with Statham UC2 cells, amplified and digitized via A/D converters (DAS-1802 HC, Keithley Instruments, Munich) and recorded in parallel on chart recorders. Contractions are induced by cumulatively adding increasing concentrations of phenylephrine to the bath. After several control cycles, the substance to be investigated is added in each further run in increasing dosage, and the height of the contraction achieved is compared with the height of the contraction reached in the last preceding one. The concentration necessary to reduce the height of the control value by 50% is calculated from this (IC50 value). The standard application volume is 5 μl, the proportion of DMSO in the bath solution corresponds to 0.1%.

IC50: 950 nM
Compound: CC(C)n1c(-c2nn(Cc3ccccc3F)c3ncccc23)n[nH]c1=O [Example 6, 5-[1-(2-Fluorobenzyl)-1H-pyrazolo[3,4-b]pyridin-3-yl]-4-isopropyl-2,4-dihydro-3H-1,2,4-triazol-3-one]
